Laboratory results from paper PMC4046919.
These are yes or no findings as the source states them, for the method shown. In cells and extracts the contact can be indirect. For some assays here: A result given as binding can be weak or reduced; the word gives no strength.

Protein sequences, listed by entry. Tags and fused reporters are not part of them. Lines headed by an entry give the natural chain unless they say otherwise; changes in a name come on top.
UniProt Q9WTI7: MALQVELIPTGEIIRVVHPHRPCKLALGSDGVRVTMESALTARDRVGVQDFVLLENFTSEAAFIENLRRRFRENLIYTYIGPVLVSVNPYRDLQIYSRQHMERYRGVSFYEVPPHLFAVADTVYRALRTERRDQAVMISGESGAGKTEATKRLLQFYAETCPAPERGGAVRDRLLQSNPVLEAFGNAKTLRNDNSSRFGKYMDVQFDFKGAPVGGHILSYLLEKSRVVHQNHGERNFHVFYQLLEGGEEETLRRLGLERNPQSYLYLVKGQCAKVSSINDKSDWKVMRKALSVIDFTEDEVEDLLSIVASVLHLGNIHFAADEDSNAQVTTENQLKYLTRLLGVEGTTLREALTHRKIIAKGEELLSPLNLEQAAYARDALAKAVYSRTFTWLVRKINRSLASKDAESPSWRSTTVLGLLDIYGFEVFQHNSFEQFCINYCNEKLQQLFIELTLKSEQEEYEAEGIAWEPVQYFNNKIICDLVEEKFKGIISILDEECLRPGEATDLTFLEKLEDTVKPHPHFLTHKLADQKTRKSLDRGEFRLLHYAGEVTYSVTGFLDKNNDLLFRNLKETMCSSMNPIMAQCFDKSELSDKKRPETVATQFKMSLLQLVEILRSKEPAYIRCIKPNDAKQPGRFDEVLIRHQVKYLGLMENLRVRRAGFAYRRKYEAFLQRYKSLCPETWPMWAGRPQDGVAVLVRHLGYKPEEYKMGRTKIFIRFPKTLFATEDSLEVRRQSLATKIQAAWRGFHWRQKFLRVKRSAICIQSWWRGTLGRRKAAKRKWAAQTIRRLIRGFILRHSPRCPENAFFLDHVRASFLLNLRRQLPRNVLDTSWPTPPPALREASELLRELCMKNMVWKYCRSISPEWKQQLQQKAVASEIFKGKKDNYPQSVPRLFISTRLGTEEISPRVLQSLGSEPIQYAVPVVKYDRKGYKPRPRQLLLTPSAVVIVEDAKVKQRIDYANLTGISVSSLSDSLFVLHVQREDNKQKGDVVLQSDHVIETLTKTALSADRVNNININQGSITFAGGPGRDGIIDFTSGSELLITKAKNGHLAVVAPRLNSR
UniProt P49841: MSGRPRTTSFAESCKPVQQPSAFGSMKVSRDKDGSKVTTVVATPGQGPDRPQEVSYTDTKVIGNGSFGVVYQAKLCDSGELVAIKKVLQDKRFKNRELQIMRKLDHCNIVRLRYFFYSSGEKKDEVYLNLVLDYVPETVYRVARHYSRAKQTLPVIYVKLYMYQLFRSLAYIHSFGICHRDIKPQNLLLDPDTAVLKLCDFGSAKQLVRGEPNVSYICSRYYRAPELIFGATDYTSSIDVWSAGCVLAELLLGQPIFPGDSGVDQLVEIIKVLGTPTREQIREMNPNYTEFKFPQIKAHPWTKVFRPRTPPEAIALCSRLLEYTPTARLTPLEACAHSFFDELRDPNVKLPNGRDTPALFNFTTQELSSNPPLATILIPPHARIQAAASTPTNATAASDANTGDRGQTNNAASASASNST

Assays:
[1] = biological target: V5-tagged NM1 mutant with impaired actin binding function (V5-RK605AA NM1) (UniProt Q9WTI7); assay: co-IP; total lysates of HEK293T cells stably expressing V5-tagged NM1 constructs; anti-V5 antibody and Protein G Sepharose; beads washed with 1X PBS, 1 mM PMSF, 0.2% NP-40; endogenous GSK3β detected on immunoblots with CGR11
[2] = biological target: V5-tagged NM1 deletion construct that lacks IQ motifs (V5-ΔIQ NM1) (UniProt Q9WTI7); assay: as above

- binding [1]: no binding
- binding [2]: binds
Substance: glycogen synthase kinase (GSK) 3β, endogenous, human (from UniProt P49841 1-420) (enzyme)
